{"source": "patent US20190000128A1", "about": "“INFANT FORMULA COMPRISING HUMAN MILK PEPTIDES” (THE A2 MILK COMPANY LIMITED, priority 2015, published 2019)", "system": "neuronal stem cell cultures", "assay": "HPLC measurement of intracellular thiol and methylation metabolites in differentiating NSCs", "format": "cell-based", "conditions": "differentiating NSCs at 3 dpp", "experimental": "Neuronal stem cell cultures were grown to confluence in stem cell-specific growth media as described in Example 2, and were then incubated with the indicated drugs for specific times. The medium was aspirated and the cells were washed twice with 1 mL of ice-cold HBSS. The HBSS was then aspirated and 0.6 mL of ice-cold dH2O was added to the cells and the cells scraped from the flask/dish. The cell suspension was sonicated for 15 s on ice and 100 μL of the sonicate was used to determine protein content. The remaining lysate was added to a microcentrifuge tube with an equal volume of 0.4 N perchloric acid, and incubated on ice for 5 min. […]\nConcentrations of the following metabolites were measured: cysteine (CYS), cystine (CYS2), glutathione (GSH), glutathione disulfide (GSSG), homocysteine (HCY), homocystine\n(HCY2), methionine (MET), S-adenosyl homocysteine (SAH), and S-adenosyl methionine (SAM). […] Sample concentrations were determined from the peak area for each metabolite using standard calibration curves and ESA software, and then normalised for protein concentration. […]\nResults are expressed as the mean±standard error of the mean of direct counts of positive cells for each antibody from independent experiments done in triplicate or quadruplicate. […] In each culture, 25 predetermined visual fields were counted under a confocal microscope. […]"}
{"smiles": "CN1CC[C@]23c4c5ccc(O)c4O[C@H]2[C@@H](O)C=C[C@H]3[C@H]1C5", "note": "[morphine, Morphine]", "values": [{"measurement": "GSH/GSSG ratio", "setting": "FIG. 4", "value": "significantly increased"}, {"measurement": "SAM/SAH ratio", "setting": "FIG. 5", "value": "significantly decreased"}]}
